{"source": "paper PMC10964525", "key": {"[1]": {"biological_target": "PDGFRbeta (endogenous, on adipose-derived MSCs, EGFR-/PDGFRb+) (human) (UniProt P09619)", "experiment": "confocal uptake of aptamer-nanoparticles by cells", "conditions": "MSCs, 60 min, multivalent nanoparticle; 2'-fluoro pyrimidines; 5' NH2-C6 amide-linked to nanoparticle; Cell uptake only (no purified-protein binding): culture medium, 37 C, 30-60 min, nanoparticles at 5 uM Iren; protein on the cell surface; label: Iren-AuSiO2 nanoparticle (Ir luminescence)"}, "[2]": {"biological_target": "EGFR (endogenous, on A431 / BT-474 cells, EGFR+/PDGFRb-) (human) (UniProt P00533)", "experiment": "confocal uptake of aptamer-nanoparticles by cells", "conditions": "A431 and BT-474 cells, 60 min, multivalent nanoparticle; 2'-fluoro pyrimidines; 5' NH2-C6 amide-linked to nanoparticle; Cell uptake only (no purified-protein binding): culture medium, 37 C, 30-60 min, nanoparticles at 5 uM Iren; protein on the cell surface; label: Iren-AuSiO2 nanoparticle (Ir luminescence)"}}, "note": "Construct, isoform or probe ends are uncertain for at least one entry. Results from cells or extracts need not show a direct contact. Negatives hold for the conditions tested. At least one verdict was read from the data and is not stated in words by the source."}
{"sequence": "GCCUUAGUAACGUGCUUUGAUGUCGAUUCGACAGGAGGC [CL4]", "values": [{"measurement": "binding result", "setting": "[1]", "value": "no binding"}, {"measurement": "binding result", "setting": "[2]", "value": "binds"}]}
{"sequence": "UGUCGUGGGGCAUCGAGUAAAUGCAAUUCGACA [Gint4.T]", "values": [{"measurement": "binding result", "setting": "[1]", "value": "binds"}, {"measurement": "binding result", "setting": "[2]", "value": "no binding"}]}
{"sequence": "UUCGUACCGGGUAGGUUGGCUUGCACAUAGAACGUGUCA [Scr (scrambled CL4)]", "values": [{"measurement": "binding result", "setting": "[1]", "value": "no binding"}, {"measurement": "binding result", "setting": "[2]", "value": "no binding"}]}
